Literature values, collected in patent US20250099634A1, “METHOD OF TREATING CANCER” (Novartis AG, priority 2023, published 2025).
Some of these results come from one statement about several compounds together.

Tested on: advanced midgut carcinoid and/or metastatic GEP-NET
Conditions: high-dose treatment; three studies; cited from earlier work

For `C[C@@H](O)[C@@H]1NC(=O)[C@H](CCCCN)NC(=O)[C@@H](Cc2c[nH]c3ccccc23)NC(=O)[C@H](Cc2ccccc2)NC(=O)[C@@H](NC(=O)[C@H](N)Cc2ccccc2)CSSC[C@@H](C(=O)N[C@H](CO)[C@@H](C)O)NC1=O` [Octreotide LAR, octreotide], the disease stabilization is listed as 37-75%.
